{"sequences": {"note": "Protein sequences, listed by entry. Tags and fused reporters are not part of them. Residues count along the entry.", "UniProt Q9QUK6, residues 26-835": "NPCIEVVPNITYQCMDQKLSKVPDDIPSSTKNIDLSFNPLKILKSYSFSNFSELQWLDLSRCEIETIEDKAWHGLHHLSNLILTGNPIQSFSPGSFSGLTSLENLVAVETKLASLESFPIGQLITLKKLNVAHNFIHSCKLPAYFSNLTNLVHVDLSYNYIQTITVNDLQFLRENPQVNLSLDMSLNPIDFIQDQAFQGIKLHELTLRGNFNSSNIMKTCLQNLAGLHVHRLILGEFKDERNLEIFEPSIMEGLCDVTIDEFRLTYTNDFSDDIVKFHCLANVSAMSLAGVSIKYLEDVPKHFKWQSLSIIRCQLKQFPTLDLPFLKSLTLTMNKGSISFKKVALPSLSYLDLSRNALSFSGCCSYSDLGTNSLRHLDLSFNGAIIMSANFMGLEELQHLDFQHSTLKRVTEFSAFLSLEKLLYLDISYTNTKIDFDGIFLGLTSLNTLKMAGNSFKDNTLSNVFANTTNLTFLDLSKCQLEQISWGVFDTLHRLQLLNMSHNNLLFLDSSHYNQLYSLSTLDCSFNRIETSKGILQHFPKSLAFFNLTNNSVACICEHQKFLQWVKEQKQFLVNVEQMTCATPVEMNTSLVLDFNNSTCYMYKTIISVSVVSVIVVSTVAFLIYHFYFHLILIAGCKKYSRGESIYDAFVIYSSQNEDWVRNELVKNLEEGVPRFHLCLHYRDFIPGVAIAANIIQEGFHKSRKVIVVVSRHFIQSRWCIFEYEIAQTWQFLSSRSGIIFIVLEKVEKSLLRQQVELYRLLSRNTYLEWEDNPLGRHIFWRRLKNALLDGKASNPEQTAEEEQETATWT"}, "source": "paper PMC9262968", "key": {"[1]": {"target": "TLR4 (endogenous mouse Toll-like receptor 4) (mouse (endogenous in BMDCs and BMDMs)) (UniProt Q9QUK6)", "experiment": "native gel or EMSA; whole-cell lysates on 7.5% native PAGE (pH 8.8), running buffer 192 mM glycine, 24 mM Tris pH 8.3, no detergents; TLR4 dimers and monomer detected by immunoblot with anti-TLR4 (ab13556); cells treated with LPS with or without sGRP78"}, "[2]": {"target": "full length mouse TLR4 with His6 epitope (HIS-TLR4) or FLAG (FLAG-TLR4) (mouse) (UniProt Q9QUK6)", "experiment": "co-IP; Tlr4-/- BMDCs co-transfected with pHIS-TLR4 and pFLAG-TLR4 for 48 h, then treated with sGRP78 and/or LPS for 3 h; extracts immunoprecipitated with anti-FLAG, probed with anti-HIS"}, "[3]": {"target": "TLR4 (endogenous mouse Toll-like receptor 4) (mouse (endogenous in BMDCs and BMDMs)) (UniProt Q9QUK6)", "experiment": "co-IP; immunoprecipitation of endogenous TLR4 from cell lysates (IP lysis buffer: 20 mM Tris-HCl pH 7.4, 150 mM NaCl, 0.5% Nonidet-P40), antibody-protein A/G agarose overnight at 4 °C, immunoblot; cells with or without sGRP78 and FITC-LPS"}}, "note": "No constants are given. Whether binding was seen depends on the method and setting. For part of these data: Binding seen in cells or lysates may run through a third protein. Some results given as binding are weak or reduced against the parent protein; the word gives no strength."}
{"molecule": "TLR4 (endogenous mouse Toll-like receptor 4) (from UniProt Q9QUK6 26-835)", "values": [{"measurement": "binding", "setting": "[1]", "result": "binds"}]}
{"molecule": "full length mouse TLR4 with His6 epitope (HIS-TLR4) or FLAG (FLAG-TLR4) (from UniProt Q9QUK6 26-835) (receptor)", "values": [{"measurement": "binding", "setting": "[2]", "result": "binds"}]}
{"molecule": "CD14 (endogenous mouse) (receptor, UniProt P10810 16-336) SPAPPEPCELDEESCSCNFSDPKPDWSSAFNCLGAADVELYGGGRSLEYLLKRVDTEADLGQFTDIIKSLSLKRLTVRAARIPSRILFGALRVLGISGLQELTLENLEVTGTAPPPLLEATGPDLNILNLRNVSWATRDAWLAELQQWLKPGLKVLSIAQAHSLNFSCEQVRVFPALSTLDLSDNPELGERGLISALCPLKFPTLQVLALRNAGMETPSGVCSALAAARVQLQGLDLSHNSLRDAAGAPSCDWPSQLNSLNLSFTGLKQVPKGLPAKLSVLDLSYNRLDRNPSPDELPQVGNLSLKGNPFLDSESHSEKFN", "values": [{"measurement": "binding", "setting": "[3]", "result": "binds"}]}
